Source: PMC7815755
No constants are given. Whether binding was seen depends on the method and setting.

How the values were obtained:
[1] = molecular target: T1, GBP2 (guanylate-binding protein 2) (UniProt Q9Z0E6); test: native gel or EMSA; native PAGE, PhastSystem, 8-25% gradient gels, Coomassie; proteins mixed in the absence and presence of GTP and MgCl2, 1 h at 4 °C; both purified
T1 sequence: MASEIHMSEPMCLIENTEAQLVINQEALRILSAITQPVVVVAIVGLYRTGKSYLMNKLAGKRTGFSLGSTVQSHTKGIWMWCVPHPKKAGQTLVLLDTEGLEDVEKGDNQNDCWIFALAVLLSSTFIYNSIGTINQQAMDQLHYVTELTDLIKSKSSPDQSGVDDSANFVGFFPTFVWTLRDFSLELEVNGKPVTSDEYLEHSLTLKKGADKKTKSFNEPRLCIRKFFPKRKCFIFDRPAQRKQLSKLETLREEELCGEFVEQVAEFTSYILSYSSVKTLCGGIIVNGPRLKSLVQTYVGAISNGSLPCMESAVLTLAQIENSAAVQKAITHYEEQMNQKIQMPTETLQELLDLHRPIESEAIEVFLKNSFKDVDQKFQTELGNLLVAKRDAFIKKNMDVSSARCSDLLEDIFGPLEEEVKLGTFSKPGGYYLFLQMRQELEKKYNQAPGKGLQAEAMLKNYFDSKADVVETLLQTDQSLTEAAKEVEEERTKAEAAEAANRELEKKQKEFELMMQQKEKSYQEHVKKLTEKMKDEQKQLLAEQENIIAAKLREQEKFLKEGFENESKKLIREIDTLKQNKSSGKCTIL

[2] = molecular target: T2, mouse GBP5 (guanylate-binding protein 5) (mouse) (UniProt Q8CFB4); test: as above
T2 sequence: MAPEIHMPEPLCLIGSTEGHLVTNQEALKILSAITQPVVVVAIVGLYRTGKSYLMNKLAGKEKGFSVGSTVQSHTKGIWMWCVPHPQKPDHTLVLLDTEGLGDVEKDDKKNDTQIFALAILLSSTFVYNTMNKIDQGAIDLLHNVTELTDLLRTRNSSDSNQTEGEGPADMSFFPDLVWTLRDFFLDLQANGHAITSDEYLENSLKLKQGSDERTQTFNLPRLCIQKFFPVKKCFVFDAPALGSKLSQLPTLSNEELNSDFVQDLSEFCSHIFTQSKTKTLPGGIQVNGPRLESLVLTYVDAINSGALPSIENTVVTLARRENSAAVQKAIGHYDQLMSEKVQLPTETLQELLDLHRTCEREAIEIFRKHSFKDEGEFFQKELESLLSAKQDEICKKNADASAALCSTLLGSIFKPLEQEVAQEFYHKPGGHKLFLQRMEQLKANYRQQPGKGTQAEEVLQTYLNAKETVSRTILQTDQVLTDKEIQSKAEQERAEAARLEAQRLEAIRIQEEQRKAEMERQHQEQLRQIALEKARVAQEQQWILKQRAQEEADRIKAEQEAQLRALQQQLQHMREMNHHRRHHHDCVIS

B1: Immunity-related GTPase B10 (IRGB10), mouse, full length, wild type (protein, UniProt Q0GUM3 1-417)
chain: MGQSSSKPDAKAHNMASSLTEFFKNFKMESKIISKETIDSIQSCIQEGDIQKVISIINAALTDIEKAPLNIAVTGETGAGKSTFINALRGIGHEESESAESGAVETTKDRKKYTHPKFPNVTIWDLPGVGTTNFKPEEYLKKMKFQEYDFFLIISSARFRDNEAQLAEAIKKMKKKFYFVRTKIDSDLWNEKKAKPSSYNREKILEVIRSDCVKNLQNANAASTRVFLVSSFEVAQFDFPSLESTLLEELPAHKRHIFVQCLPTITEPAIDRRRDVLKQTIWLEALKAGASATIPMMSFFNDDIEEFEKILSHYRACFGLDDESLENMAKEWSMSVEELESTIKSPHLLSSEPNESVADKLVKTMEKIFAVTGGFVATGLYFRKSYYMQNYFLDTVTEDAKVLLKKKVFLQDSVDSE
B1 was tested, and the binding [1] was “no binding” and the binding [2] was “no binding”.
